Measurements: patent US20150225469A1
Results are given in words; binding and its absence hold for the method and conditions named. Binding seen in cells or lysates may run through a third protein. Some entries that bind do so weakly or less than the wild type.

Key:
[1] = target: T1, Patched1 (Ptch1) (mouse) (UniProt Q61115); assay: co-immunoprecipitation from mouse chondrocyte lysate with anti-human BBF2H7 C terminus polyclonal antibody, blotted with a Ptch1 antibody
T1 sequence (looked up): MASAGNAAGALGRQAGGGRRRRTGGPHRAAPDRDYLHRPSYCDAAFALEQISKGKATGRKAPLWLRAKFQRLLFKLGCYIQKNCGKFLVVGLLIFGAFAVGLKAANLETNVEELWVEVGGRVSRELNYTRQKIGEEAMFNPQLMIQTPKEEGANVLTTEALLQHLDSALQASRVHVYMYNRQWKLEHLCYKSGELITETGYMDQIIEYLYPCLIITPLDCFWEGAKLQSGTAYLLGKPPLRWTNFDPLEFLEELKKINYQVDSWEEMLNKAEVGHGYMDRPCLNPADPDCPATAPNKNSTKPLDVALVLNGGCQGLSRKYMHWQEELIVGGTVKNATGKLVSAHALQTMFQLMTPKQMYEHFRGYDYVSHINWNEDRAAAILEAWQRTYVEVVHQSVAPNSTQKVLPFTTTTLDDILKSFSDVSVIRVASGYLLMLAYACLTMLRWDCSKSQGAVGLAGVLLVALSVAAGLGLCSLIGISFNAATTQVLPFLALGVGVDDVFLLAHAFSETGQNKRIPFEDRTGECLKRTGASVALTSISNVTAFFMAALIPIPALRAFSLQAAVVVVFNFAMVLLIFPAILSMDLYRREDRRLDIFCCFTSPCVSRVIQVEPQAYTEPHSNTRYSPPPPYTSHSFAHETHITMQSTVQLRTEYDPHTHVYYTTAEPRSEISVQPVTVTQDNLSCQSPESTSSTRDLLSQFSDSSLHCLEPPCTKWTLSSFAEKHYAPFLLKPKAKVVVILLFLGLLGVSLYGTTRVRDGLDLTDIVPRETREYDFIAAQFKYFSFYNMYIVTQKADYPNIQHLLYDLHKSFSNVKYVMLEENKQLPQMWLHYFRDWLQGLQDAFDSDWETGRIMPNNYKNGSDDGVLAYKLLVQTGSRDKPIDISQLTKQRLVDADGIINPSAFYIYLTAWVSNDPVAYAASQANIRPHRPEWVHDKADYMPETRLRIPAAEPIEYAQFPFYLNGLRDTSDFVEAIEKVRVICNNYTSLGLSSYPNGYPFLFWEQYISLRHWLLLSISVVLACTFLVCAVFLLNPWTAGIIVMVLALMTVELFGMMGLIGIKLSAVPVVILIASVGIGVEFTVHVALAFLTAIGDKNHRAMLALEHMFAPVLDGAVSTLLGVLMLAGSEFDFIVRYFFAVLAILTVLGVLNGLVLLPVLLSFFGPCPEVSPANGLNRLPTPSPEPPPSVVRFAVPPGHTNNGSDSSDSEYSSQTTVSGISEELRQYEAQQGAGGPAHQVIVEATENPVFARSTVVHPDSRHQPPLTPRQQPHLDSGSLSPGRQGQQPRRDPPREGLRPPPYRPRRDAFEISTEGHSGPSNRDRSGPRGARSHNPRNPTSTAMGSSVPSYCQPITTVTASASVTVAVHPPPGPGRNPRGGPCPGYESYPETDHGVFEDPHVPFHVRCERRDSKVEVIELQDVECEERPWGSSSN

[2] = target: T1, Patched1 (Ptch1) (mouse); assay: co-immunoprecipitation from mouse chondrocyte lysate with anti-human BBF2H7 C terminus polyclonal antibody, blotted with anti Ptch1 antibody

binding [1]: binds
binding [2]: binds
B1: BBF2H7 C terminus peptide of mouse chondrocytes (extracellularly secreted C terminus partial peptide of mouse BBF2H7) (peptide)
chain: IYEEHAPLEESSSPASAGELGGWDRGSSLLRASSGLEALPEVDLPHFLISNETSLEKSVLLELQQHLVSSKLEGNETLKVVELERRVNATF
